No constants are given. Whether binding was seen depends on the method and setting. Binding can be weak; no strength is given. Sequences can lack the tags named with a protein. For some assays here: Binding seen in cells or lysates may run through a third protein.
Columns and labels:
[1] = molecular target: T1, full length CRWN1, Gal4 fusion for yeast two-hybrid (Arabidopsis thaliana) (UniProt F4HRT5); assay: two-hybrid
T1 sequence: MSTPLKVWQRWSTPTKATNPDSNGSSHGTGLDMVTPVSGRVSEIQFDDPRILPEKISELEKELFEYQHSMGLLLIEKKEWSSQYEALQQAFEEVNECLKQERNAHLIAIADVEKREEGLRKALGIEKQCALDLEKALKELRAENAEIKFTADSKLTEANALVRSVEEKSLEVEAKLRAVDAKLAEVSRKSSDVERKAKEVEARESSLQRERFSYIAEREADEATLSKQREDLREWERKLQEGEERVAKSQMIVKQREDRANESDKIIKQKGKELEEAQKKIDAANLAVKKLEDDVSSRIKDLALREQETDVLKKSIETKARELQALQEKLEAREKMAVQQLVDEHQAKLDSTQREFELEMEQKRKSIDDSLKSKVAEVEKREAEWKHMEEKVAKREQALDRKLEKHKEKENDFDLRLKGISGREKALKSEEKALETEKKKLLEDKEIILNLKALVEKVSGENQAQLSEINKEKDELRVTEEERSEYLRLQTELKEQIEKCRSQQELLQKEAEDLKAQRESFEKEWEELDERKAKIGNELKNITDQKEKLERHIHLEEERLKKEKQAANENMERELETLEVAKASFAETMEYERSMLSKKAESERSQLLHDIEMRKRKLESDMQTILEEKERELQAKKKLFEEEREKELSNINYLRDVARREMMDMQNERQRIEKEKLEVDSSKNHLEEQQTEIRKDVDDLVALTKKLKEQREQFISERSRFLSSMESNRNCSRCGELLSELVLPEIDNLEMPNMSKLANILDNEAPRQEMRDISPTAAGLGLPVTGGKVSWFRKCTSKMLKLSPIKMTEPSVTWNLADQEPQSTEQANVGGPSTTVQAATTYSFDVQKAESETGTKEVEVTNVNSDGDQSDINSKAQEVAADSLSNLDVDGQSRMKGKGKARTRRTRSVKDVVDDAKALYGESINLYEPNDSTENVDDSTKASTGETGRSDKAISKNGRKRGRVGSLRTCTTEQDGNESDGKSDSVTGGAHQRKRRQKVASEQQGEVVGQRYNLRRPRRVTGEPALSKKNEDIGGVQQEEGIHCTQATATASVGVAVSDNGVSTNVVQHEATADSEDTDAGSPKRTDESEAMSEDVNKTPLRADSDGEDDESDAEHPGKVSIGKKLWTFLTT

[2] = molecular target: T2, CRWN1, fluorophore fusion for FRET-APB (Arabidopsis thaliana) (UniProt F4HRT5); assay: FRET or BRET
T2 sequence: T1 sequence

Row | binding [1] | binding [2] | Substance
1 | binds |  | C-terminal PWO1 fragment (634 - 769 aa), Gal4 fusion for yeast two-hybrid (Arabidopsis thaliana) (domain or fragment)
2 |  | binds | C-terminal PWO1 fragment (634 - 769 aa), fluorophore fusion for FRET-APB (Arabidopsis thaliana) (domain or fragment)

Source: doi:10.1101/220541
